# Laboratory results from the supplement of paper PMC8256030.
# Values joined by “and” are separate entries in the source; they are usually repeats but may differ in a detail not shown here. Equal entries are not always repeated. This is one part of the list. Repeats in this data set agree poorly, so a single value says little.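 HEK293T cells were given each compound shortly before transfection with a reporter in which red mCherry is followed by the SARS-CoV-2 frameshift element and then GFP in the −1 frame, so GFP appears only after frameshifting.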
# Test system: HEK293T
# Test: percent viability (nuclei count) relative to control; higher = more viable cells
# Conditions: 10 µM; 24 h
row,Compound,percent viability
1,CCOC(=O)CN1CCN(C(=O)/C=C/c2cc(OC)c(OC)c(OC)c2)CC1 [cinepazet],107%
2,CCC[C@@H]1C[C@@H](C(=O)N[C@@H]([C@H]2O[C@H](SC)[C@H](O)[C@@H](O)[C@H]2O)[C@H](C)Cl)N(C)C1,89.3%
3,CC(CN(C)C)CN1c2ccccc2Sc2ccccc21 (centres undefined) [alimemazine],198%
4,Cc1cc(NS(=O)(=O)c2ccc(N)cc2)nc(C)n1 [sulfisomidine],262%
5,CO/N=C(\C(=O)N[C@@H]1C(=O)N2C(C(=O)O)=C(C[N+]3(C)CCCC3)CS[C@H]12)c1csc(N)n1,211%
6,Nc1ccc(S(=O)(=O)c2ccc(N)cc2)cc1 [dapsone],102%
7,CCOC(=O)C1=C(C)NC(C)=C(C(=O)OC)C1c1cccc([N+](=O)[O-])c1 (centres undefined) [nitrendipine],376%
8,CCC1(C)CC(=O)NC1=O (centres undefined) [ethosuximide],405%
9,NC(=O)c1cn(Cc2c(F)cccc2F)nn1 [rufinamide],299%
10,C=CCc1cc(OC)c(O)c(C(=O)NCCO)c1 [alibendol],89%
11,O=C(O)CCC(=O)c1ccc2oc3ccccc3c2c1 [furobufen],190%
12,CS(=O)(=O)CCNCc1ccc(-c2ccc3ncnc(Nc4ccc(OCc5cccc(F)c5)c(Cl)c4)c3c2)o1 [lapatinib],236%
13,CN(C)CCOC(c1ccccc1)c1ccc(Br)cc1 (centres undefined) [Bromodiphenhydramine],455%
14,CC(C)NCC(O)COc1ccc(CC(N)=O)cc1 (centres undefined) [atenolol],277% and 95.5%

# In a second layout: results already given.
row	Compound	percent viability
3	CC(CN(C)C)CN1c2ccccc2Sc2ccccc21 (centres undefined) [alimemazine]	198%
4	Cc1cc(NS(=O)(=O)c2ccc(N)cc2)nc(C)n1 [sulfisomidine]	262%
